Laboratory results published in PubChem BioAssay AID504467 (National Center for Advancing Translational Sciences (NCATS), 2011).
Out of some 330,000 compounds screened, about 7,700 (2.3%) were called active. Where a call stands in place of a potency, no number is given. Inconclusive means that the source gave no clear call. Such entries were picked first, then a sample of the others. Calls follow the shape of the dose curve; as a rule, active = well fitted inhibition curve with a large enough effect; inconclusive = small, poorly fitted or top-dose-only effect, or effect the other way; inactive = flat fitted curve, though single readings scatter. Potencies of inconclusive entries are doubtful fits and often do not repeat.

assay: qHTS screen for small molecules that inhibit ELG1-dependent DNA repair in human embryonic kidney (HEK293T) cells expressing luciferase-tagged ELG1; conditions: HEK293T ELG1-luciferase reporter, luminescence, 16 h, DNA damage induced by 5-fluorouridine; series mostly up to 46.1 µM; also: nearly all actives have a fitted effect of over 55% in size
How it was run: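 Step one: seed 2,000 cells per well. Step two: pin-transfer compound or DMSO alongside 5-fluorouridine. Step three: incubate 16 hr, 37 °C, 5% CO2. Step four: add ONE-Glo, wait 30 min, read luminescence.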
Potency is read from the fitted curve at half-maximal effect.

SMILES	Potency
CC(NC(=S)Nc1c(Br)cccc1OC(F)F)C(C)(C)C (stereo unspecified)	inactive
Cn1c(=S)[nH]c2c(c1=O)C(C)(C)Cc1ccccc1-2	inconclusive: 29.1 µM [inhibitor, single point]
Cc1ccc(CNC(=O)CCCn2nc(C)n3ccnc3c2=O)cc1	inactive
CC(C)n1ncc2c(C(=O)Nc3ccc(CC#N)cc3)cc(C3CC3)nc21	inconclusive: 29.1 µM [inhibitor, single point]
CCn1nc(NS(=O)(=O)c2ccccc2)c2cc3cc(C)ccc3nc21	inconclusive: 11.6 µM [activator, single point]
COc1ccccc1C(=O)NNC(=O)C1CCCO1 (stereo unspecified)	inactive
O=C(N/N=C/c1cn(Cc2ccccc2)c2ccccc12)c1cc(O)cc(O)c1	inactive
CC(C)(C)c1ccc(O)c(N=Cc2cc(Br)ccc2O)c1	inactive
CCOC(=O)c1ccc(NC(=O)CC2S/C(=N/N=C/c3c[nH]c4ccccc34)NC2=O)cc1 (stereo unspecified)	inactive
O=C(NCC1CCCO1)c1cccc(S(=O)(=O)N2CCOCC2)c1 (stereo unspecified)	inconclusive: 32.6 µM [activator, partial curve, poor fit]
O=C(Cc1cccs1)NCc1ccccc1Br	inconclusive: 16.4 µM [activator, partial curve]
C=CCN(CC=C)C(=S)Nc1ccc(OC)c(OC)c1	inactive
CN(C)C(=O)CCc1ccc2c3c([nH]c2c1)[C@]1(CCC2CCCC2)[C@@H](C(=O)N2CCOCC2)C[C@H](CC(=O)NCCc2ccccn2)C(=O)N1CC3	inactive
CCC1CCCCN1S(=O)(=O)c1ccccc1 (stereo unspecified)	inactive
O=C(NCCN1CCOCC1)c1cc(-c2ccccc2Cl)on1	inconclusive: 29.1 µM [activator, single point]
CCN(CC)C(=O)[C@H]1C[C@H](CC(=O)NCCCn2ccnc2)C(=O)N2CCc3c([nH]c4cc(-c5ccco5)ccc34)[C@]12C	inactive
CCOC(=O)c1sc(NC(=O)c2c(C)nn(Cc3ccccc3)c2C)cc1C	inconclusive: 23.1 µM [inhibitor, single point]
O=C(NC(Cc1c[nH]c2ccccc12)C(=O)N/N=C/c1ccc(Br)cc1)c1cccs1 (stereo unspecified)	active: 23.1 µM
COc1ccc(NS(=O)(=O)c2ccc(-c3coc(C)n3)cc2)c(OC)c1	inconclusive: 18.3 µM [inhibitor, partial curve, poor fit]
O=C(Cn1ccc2ccccc2c1=O)NCCC(=O)Nc1cccc(Cl)c1	inactive
COc1ccc(NC(=O)c2cc(-c3cc(OC)c(OC)c(OC)c3)nc3ccccc23)cc1OC	active: 1.83 µM

Three compounds from above, sorted by molecular weight, descending:
SMILES	Potency
CN(C)C(=O)CCc1ccc2c3c([nH]c2c1)[C@]1(CCC2CCCC2)[C@@H](C(=O)N2CCOCC2)C[C@H](CC(=O)NCCc2ccccn2)C(=O)N1CC3	inactive
O=C(NCCN1CCOCC1)c1cc(-c2ccccc2Cl)on1	inconclusive: 29.1 µM [activator, single point]
CCC1CCCCN1S(=O)(=O)c1ccccc1 (stereo unspecified)	inactive
